Measurements as given in the supplement of paper PMC10338343.
± gives the standard deviation. The entries are a selection whose mix differs from that of the whole data set. Many entries were measured with a wide error.

Tested on: MIWI (PIWIL1) piRISC loaded with L1MC piRNA (30 nt)
Test: pre-steady-state target cleavage rate (min^-1); MIWI and MILI are mouse PIWI proteins and EfPiwi is from a freshwater sponge; tags in brackets are library labels; higher = faster piRNA-guided slicing of the target
Conditions: guide: L1MC piRNA 5'p-UAACUAAAUACUAUGCAAGCUGUAGGUCCU
How it was run: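 Reactions were run for 0–8 or 0–960 min at 33 °C in HEPES–potassium acetate buffer, combining 1 nM active affinity-purified piRISC with one synthetic guide, […] transcribed, DNA-blocked target RNA library and, in some cases, 500 nM GTSF1 partner protein. Sequencing of uncleaved targets followed, with normalisation to depth and to weakly complementary targets. Three trials were pooled, k3 was capped at 0.0001 min^-1, and the pre-steady-state cleavage rate was taken from a burst-and-steady-state fit.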

[1] = auxiliary factor: 500 nM mouse GTSF1
[2] = auxiliary factor: none (no GTSF1)
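Note: 1 nM active piRISC with 0.1 nM target library at 33 °C single turnover.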

| Sequence | pre-steady-state target cleavage rate [1] | pre-steady-state target cleavage rate [2] |
| --- | --- | --- |
| AGAGACCUACAGCUUGCAUAGUAUUUAGUUA | 1.46 ± 0.067 | 0.091 ± 0.017 |
| AGGACCUACAGCUAGGAUAGUAUUUAGUUA | 1.09 ± 0.06 | 0.0102 ± 0.0018 |
| UGGACCUACAGCUUGCAUAGUAUUAGUUA | 0.172 ± 0.032 | 0.00299 ± 0.0019 |
| UCGACCUACAGCUUGCUUAGUAUUUAGUAA | 1.02 ± 0.068 | 0.0176 ± 0.005 |
| UGGACCUACACCUUGGAUAGUAUUUAGUUA | 0.815 ± 0.069 | 0.0418 ± 0.0063 |
| UGGACCUACAGCUUAGCAUAGUAUUUAGUUA | 1.45 ± 0.08 | 0.0281 ± 0.0051 |
| UGGACCUAGAGCUUGCUUAGUAUUUAGUUA | 1.18 ± 0.095 | 0.0321 ± 0.0069 |
| UGGACCUACAGCUUGCAUAGGUAUUUAGUUA | 0.00335 ± 0.0047 | 0.000965 ± 0.0054 |
| UGGACCUACCGCUUGCAUAGUAUUUAGUUA | 1.57 ± 0.11 | 0.0558 ± 0.0098 |
| UCCUGCAUGAGCUUGCAUAGUAUUUAGUUA | 0.92 ± 0.051 | 0.0506 ± 0.01 |
| UGGACCUACAGCUUGCAUAGUAUUUACUUA | 0.24 ± 0.021 | 0.0361 ± 0.0058 |
| UGGACCUACAGGAAGCAUAGUAUUUAGUUA | 0.994 ± 0.094 | 0.00926 ± 0.0024 |
| ACGACCUACUGCUUGCAUAGUAUUUAGUUA | 1.51 ± 0.054 | 0.0792 ± 0.013 |
| UCGACCAUGAGCUUGCAUAGUAUUUAGUAA | 0.804 ± 0.049 | 0.0343 ± 0.0083 |
| UCGACGUACAGCUUGGAUAGUAUUUAGUUA | 1.24 ± 0.042 | 0.0503 ± 0.0083 |
| UGGACCUGACAGCUUGCAUAGUAUUUAGUUA | 1.56 ± 0.12 | 0.0824 ± 0.017 |
| UGGACCUACAGCUUGCAUAGUAUUUAGCUUA | 0.316 ± 0.023 | 0.0288 ± 0.0059 |
| AGGACUACAGCUUGCAUAGUAUUUAGUUA | 1.24 ± 0.066 | 0.0945 ± 0.016 |
| UCCACCUACAGCUUGCUUAGUAUUUAGUUA | 1.16 ± 0.05 | 0.0305 ± 0.0053 |
| AGGACCUACAGCUUGCAUAGAUAUUUAGUUA | 0.143 ± 0.048 | 0.0018 ± 0.0059 |
| UGGACCUACAGCUUGCUUACUAUUUAGUUA | 0.493 ± 0.031 | 0.0127 ± 0.0038 |
| UCCUGGAUGUCGAACGUUAGUUUUAGUUA | 0.000189 ± 0.021 | 0.000174 ± 0.022 |

| Sequence | pre-steady-state target cleavage rate [1] | pre-steady-state target cleavage rate [2] |
| --- | --- | --- |
| UCCACCGUACAGCUUGCAUAGUAUUUAGUUA | 1.18 ± 0.054 | 0.0628 ± 0.012 |
| UGGACCUACAGCUUGCAUACAAUUUACAAA | 0.000439 ± 0.011 | 0.000229 ± 0.013 |
| UCCACCUACAGCUACGAUAGUAUUUAGUUA | 0.121 ± 0.016 | 0.000346 ± 0.0072 |
| AGGACCUACUGCUUGCUUAGUAUUUAGUUA | 1.39 ± 0.087 | 0.05 ± 0.01 |
| UGGACCUACUGCAUGCAUAGUAUUUAGUUA | 1.27 ± 0.08 | 0.0325 ± 0.0061 |
| AGGACCUACAGCUAGCAUAGUAUUUAGUAA | 0.836 ± 0.073 | 0.0193 ± 0.0066 |
| UCGACCUACAGCUUGCAUAGUAAUAAGUUA | 0.444 ± 0.047 | 0.002 ± 0.0034 |
| UCGACCUACAGCUUGCAUAGUAUUAACAAA | 0.401 ± 0.044 | 0.00227 ± 0.0028 |
| UGGACCUACAGCUUGGUAAGUAUUUUCAAA | 0.000219 ± 0.014 | 0.000203 ± 0.0089 |
| UCCACCUUGUGCUUGCAUAGUAUUUACAAA | 0.0809 ± 0.013 | 0.00196 ± 0.0022 |
| UCGUCCUUCAGCUUGCAUAGUAUUUAGUUA | 1.41 ± 0.038 | 0.0596 ± 0.01 |
| UCCUGGAUGUCGAACGAUAGUUAUUUAGUUA | 0.000271 ± 0.015 | 0.00037 ± 0.011 |
| AGGACCUUCAGCUUCCAUAGUAUUUAGUUA | 0.101 ± 0.023 | 0.00546 ± 0.0024 |
| UGGACCUACGCUUGCAUAGUAUUUAGUUA | 1.4 ± 0.081 | 0.046 ± 0.008 |
| UGGACUCUACAGCUUGCAUAGUAUUUAGUUA | 1.4 ± 0.066 | 0.0856 ± 0.017 |
| AGGACCUACAGCAUGCAUAGUAUUUACAAA | 0.526 ± 0.066 | 0.00349 ± 0.0032 |
| UCGACCAACAGGUUGCAUAGUAUUUAGUUA | 1.16 ± 0.049 | 0.0326 ± 0.006 |
| UCGACCUACACUUGCAUAGUAUUUAGUUA | 1.09 ± 0.045 | 0.0331 ± 0.0076 |
| UCCACCUACAGCUUGCAUACUAUAUAGUUA | 0.178 ± 0.022 | 0.0112 ± 0.003 |
| ACCUCCUACAGCUUGCAUAGUAUUUAGUUA | 1.35 ± 0.052 | 0.0784 ± 0.012 |
| UCCUGCAACAGCUUGCAAAGUAUUUAGUUA | 1.32 ± 0.076 | 0.0463 ± 0.01 |
| UGGACCUACAGCUUGGAUAGUAUUUAGAAA | 0.342 ± 0.047 | 0.0107 ± 0.003 |

Single records, as listed above. Values in the order: pre-steady-state target cleavage rate [1] | pre-steady-state target cleavage rate [2]
UCGACCUACACUUGCAUAGUAUUUAGUUA reads 1.09 ± 0.045 | 0.0331 ± 0.0076
UGGACCUACAGCUUGCAUACAAUUUACAAA reads 0.000439 ± 0.011 | 0.000229 ± 0.013
AGGACCUACUGCUUGCUUAGUAUUUAGUUA reads 1.39 ± 0.087 | 0.05 ± 0.01

(list continues)

| Sequence | pre-steady-state target cleavage rate [1] | pre-steady-state target cleavage rate [2] |
| --- | --- | --- |
| UCGACCACAGCUUGCAUAGUAUUUAGUUA | 1.22 ± 0.051 | 0.0643 ± 0.011 |
| UGGACCUACAGCUUCGUUAGUAUUUACAAA | 0.00108 ± 0.0057 | 0.000239 ± 0.01 |
| UGGACCUACAGCUACGAUAGUAUUUAGAAA | 0.00138 ± 0.0055 | 0.000317 ± 0.0079 |
| UGGACCUACAGCUUGCAUAGAUAUUACAAA | 0.0031 ± 0.004 | 0.000159 ± 0.016 |
| UCGAGCUACACCUUGCAUAGUAUUUAGUUA | 1.01 ± 0.046 | 0.0524 ± 0.0089 |
| UCGACCUACUGCUUGCAAAGUAUUUAGUUA | 1.33 ± 0.037 | 0.051 ± 0.01 |
| UCGACCUACAGCUUGCGUAGUAUUUAGUUA | 1.86 ± 0.066 | 0.0695 ± 0.018 |
| UGGACCAACAGCUUGCAUAGUAUUUAGUUA | 1.35 ± 0.047 | 0.0769 ± 0.013 |
| AGGACCUACAGCUUGUAUAGUAUUUAGUUA | 1.6 ± 0.061 | 0.0803 ± 0.015 |
| UGGACCUACAGCUUGCAUUCAAUUUACAAA | 0.00141 ± 0.0055 | 0.000168 ± 0.011 |
| UCGACCUACAGCUUGCAUAGUUAUUUAGUUA | 0.0764 ± 0.016 | 0.00495 ± 0.0031 |
| UCGACCUACAGCUUGCAUAGUAUUAUGUAA | 0.228 ± 0.057 | 0.00175 ± 0.0031 |
| UCCACCUACAGCUUUGCAUAGUAUUUAGUUA | 0.885 ± 0.054 | 0.0278 ± 0.0062 |
| UCGACGUACAGCUUGCAUAGUAUUUAGAAA | 0.288 ± 0.026 | 0.0106 ± 0.0026 |
| UCCACCUAGAGCUUGCAUAGUAUUUAGUUA | 0.593 ± 0.06 | 0.0282 ± 0.0051 |
| AGGACCACAGCUUGCAUAGUAUUUAGUUA | 1.29 ± 0.066 | 0.0967 ± 0.019 |
| UCCACCUACAGCUUGCAUAGUAUUUCAGUUA | 0.691 ± 0.081 | 0.0139 ± 0.0037 |
| UGGACCUACAGCUUGCAUACAUUUUAGAAA | 0.00165 ± 0.0053 | 0.00023 ± 0.012 |
| UCCACCUACAGCUUGGAUAGUAUUUUCAAA | 0.0295 ± 0.012 | 0.000834 ± 0.0047 |
| UGGACCUAGCAGCUUGCAUAGUAUUUAGUUA | 1.59 ± 0.13 | 0.0734 ± 0.014 |
| AGCAGCUACAGCUUGCAUAGUAUUUAGUUA | 1.37 ± 0.067 | 0.079 ± 0.016 |
